Assay results as given in PubChem BioAssay AID256 (DTP/NCI, 2004).
The list shows only some results of the screen, not a fair sample: it gathers tests that were run many times, whatever their T/C, doses with no T/C, and many T/C values between a quarter and a half above the control. Further doses and runs are listed elsewhere. T/C: endpoint of the treated group in % of that of the vehicle group. Some doses have a count of surviving animals in place of a T/C: the source holds a T/C of zero for them, seemingly a mark for toxic or unscored doses. Some doses without a T/C left all or most animals alive at the check, yet need not have been tolerated: the source hardly ever lists a survival T/C far under the control, and the zero likely stands for such cases as well. Counts of survivors are from the toxicity check (mostly the fifth day) where no day follows; animals may have died later. Schedule codes are those of the source, read here as Q, the interval in days (D) or hours (H), X, the number of doses. Where survival is the endpoint, the PubChem record calls one and a half times the control and up active, and a quarter to a half above the control has no call in these data; cut-offs in other NCI protocols can differ. Some T/C values are followed by the survivors on the day toxicity was checked, most often the fifth; where none is given, no animal had died by that day. Some doses were run more than once; the values are given in rising order. Additions like (4×) give the number of equal values in this list.

Tested on: CD2F1 mice, L1210 leukemia ip, survival T/C
Assay: NCI In Vivo Anticancer Drug Screen. Data for tumor model L1210 Leukemia (intraperitoneal) in CD2F1 (CDF1) mice
Settings: higher T/C = longer survival
Outline: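 Antitumor effect is scored in animals hosting a serially transplanted tumor. Values compare compound-dosed animals against vehicle-only controls as a simple quotient.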

[1] = T/C endpoint: mean survival time, dose: 400.0 mg/kg/injection, schedule: Q04DX003 (ip), vehicle: saline
[2] = T/C endpoint: mean survival time, dose: 200.0 mg/kg/injection, schedule: Q01DX009 (ip), vehicle: saline with Tween-80
[3] = T/C endpoint: mean survival time, dose: 4.0 mg/kg/injection, schedule: Q01DX009 (ip), vehicle: Klucel (hydroxypropylcellulose) (HPC)
[4] = T/C endpoint: mean survival time, dose: 100.0 mg/kg/injection, schedule: Q01DX009 (ip), vehicle: saline
[5] = T/C endpoint: mean survival time, dose: 1.0 mg/kg/injection, schedule: Q01DX009 (ip), vehicle: water

With `CC[NH-].[Cl][Pt+2][Cl].[NH2-]` the T/C (T/C endpoint: mean survival time, dose: 3.13 mg/kg/injection, schedule: Q04DX003 (ip), vehicle: water) was 134 % of control, the T/C (T/C endpoint: mean survival time, dose: 6.25 mg/kg/injection, schedule: Q04DX003 (ip), vehicle: distilled water + Tween-80) was 127 % of control and the survivor count (T/C endpoint: mean survival time, dose: 12.5 mg/kg/injection, schedule: Q04DX003 (ip), vehicle: distilled water + Tween-80) was 6 of 6. The survivor count (T/C endpoint: mean survival time, dose: 12.5 mg/kg/injection, schedule: Q04DX003 (ip), vehicle: water) was 6 of 6, the survivor count (T/C endpoint: mean survival time, dose: 50.0 mg/kg/injection, schedule: Q04DX003 (ip), vehicle: distilled water + Tween-80) was 0 of 6 and the survivor count (T/C endpoint: mean survival time, dose: 100.0 mg/kg/injection, schedule: Q04DX003 (ip), vehicle: distilled water + Tween-80) was 0 of 6. For the same compound, the survivor count (T/C endpoint: mean survival time, dose: 200.0 mg/kg/injection, schedule: Q04DX003 (ip), vehicle: distilled water + Tween-80) was 0 of 6.
For `NC(CSS(=O)(=O)O)=NCCSS(=O)(=O)O`, the survivor count [1] was 0 of 6.
`CCOC(=O)NC(C)(C)CN(C(=O)OCC)C(C)C` was tested, and the survivor count (T/C endpoint: mean survival time, dose: 400.0 mg/kg/injection, schedule: Q01DX009 (ip), vehicle: other) was 4 of 6.
`Cc1c(C)c(C)c(CCl)c(C)c1C` was tested, and the survivor count [2] was 0 of 3.
With `CCCSc1ccccc1` the survivor count (T/C endpoint: mean survival time, dose: 400.0 mg/kg/injection, schedule: Q01DX001 (ip), vehicle: saline) was 1 of 6.
`OCC(O)COCC#Cc1ccccc1` (stereo unspecified) was tested, and the survivor count (T/C endpoint: mean survival time, dose: 400.0 mg/kg/injection, schedule: Q01DX009 (ip), vehicle: water) was 0 of 6.
With `CC(C)c1cc(O)c(C(C)C)cc1O` the survivor count (T/C endpoint: mean survival time, dose: 300.0 mg/kg/injection, schedule: Q01DX001 (ip), vehicle: saline) was 0 of 6.
With `COc1cc(OC)c(NC(=O)OCCOc2ccc(Cl)cc2Cl)cc1Cl` the survivor count [2] was 3 of 3.
For `CC[C@]1(O)C[C@H](OC2CC(N(C)C)C(OC3CC(O)C(O)C(C)O3)C(C)O2)c2c(cc3c(c2O)C(=O)c2c(O)ccc(O)c2C3=O)[C@H]1C(=O)OC` (stereo partly specified), the T/C (T/C endpoint: mean survival time, dose: 0.25 mg/kg/injection, schedule: Q01DX009 (ip), vehicle: Klucel (hydroxypropylcellulose) (HPC)) was 97, 118, 120 % of control (2×), the T/C (T/C endpoint: mean survival time, dose: 0.5 mg/kg/injection, schedule: Q01DX009 (ip), vehicle: Klucel (hydroxypropylcellulose) (HPC)) was 107, 110, 118, 121 % of control and the T/C (T/C endpoint: mean survival time, dose: 1.0 mg/kg/injection, schedule: Q01DX009 (ip), vehicle: Klucel (hydroxypropylcellulose) (HPC)) was 107, 118 (2×), 121, 127 % of control [9 of 10 alive]. The T/C (T/C endpoint: mean survival time, dose: 2.0 mg/kg/injection, schedule: Q01DX009 (ip), vehicle: Klucel (hydroxypropylcellulose) (HPC)) was 105, 116, 119, 124, 140 % of control, the T/C [3] was 108, 112, 142 % of control and the survivor count [3] was 7 of 10. For the same compound, the survivor count (T/C endpoint: mean survival time, dose: 8.0 mg/kg/injection, schedule: Q01DX009 (ip), vehicle: Klucel (hydroxypropylcellulose) (HPC)) was 6 of 6.
`CC(C)(C)NC[Si](C)(C)C` was tested, and the survivor count [4] was 3 of 6.
In the case of `COc1cc2c(c(OC)c1OC)-c1ccc(OC)c(=O)cc1[C@@H](NC(C)=O)CC2`, the T/C (T/C endpoint: mean survival time, dose: 0.06 mg/kg/injection, schedule: Q01DX005 (ip), vehicle: water) is reported as 126 % of control, the T/C (T/C endpoint: mean survival time, dose: 0.06 mg/kg/injection, schedule: Q01DX009 (ip), vehicle: water) is reported as 100, 101 (2×), 104, 111 % of control and the T/C (T/C endpoint: mean survival time, dose: 0.13 mg/kg/injection, schedule: Q01DX009 (ip), vehicle: water) is reported as 101 (2×), 103, 107, 111 % of control. For the same compound, the T/C (T/C endpoint: mean survival time, dose: 0.25 mg/kg/injection, schedule: Q01DX009 (ip), vehicle: water) was 95, 113, 114, 117, 123 % of control, the T/C (T/C endpoint: mean survival time, dose: 0.32 mg/kg/injection, schedule: Q01DX009 (ip), vehicle: saline) was 129 % of control and the survivor count (T/C endpoint: mean survival time, dose: 0.5 mg/kg/injection, schedule: Q01DX005 (ip), vehicle: water) was 1 of 6. For the same compound, the T/C (T/C endpoint: mean survival time, dose: 0.5 mg/kg/injection, schedule: Q01DX009 (ip), vehicle: water) was 101 (2×), 113, 115, 138 % of control, the T/C (T/C endpoint: mean survival time, dose: 0.64 mg/kg/injection, schedule: Q01DX009 (ip), vehicle: saline) was 149 % of control and the T/C (T/C endpoint: mean survival time, dose: 1.0 mg/kg/injection, schedule: Q01DX005 (ip), vehicle: Klucel (hydroxypropylcellulose) (HPC)) was 126 % of control. The survivor count (T/C endpoint: mean survival time, dose: 1.0 mg/kg/injection, schedule: Q01DX005 (ip), vehicle: water) was 0 of 6, the T/C [5] was 89, 97 [4 of 6 alive], 111 % of control and the survivor count [5] was 5 of 6. For the same compound, the survivor count (T/C endpoint: mean survival time, dose: 1.5 mg/kg/injection, schedule: Q01DX009 (ip), vehicle: saline) was 3 of 6, the survivor count (T/C endpoint: mean survival time, dose: 2.0 mg/kg/injection, schedule: Q01DX005 (ip), vehicle: Klucel (hydroxypropylcellulose) (HPC)) was 0 of 6 and the survivor count (T/C endpoint: mean survival time, dose: 3.0 mg/kg/injection, schedule: Q01DX009 (ip), vehicle: saline) was 0 of 6. The survivor count (T/C endpoint: mean survival time, dose: 6.0 mg/kg/injection, schedule: Q01DX009 (ip), vehicle: saline) was 0 of 6, the survivor count (T/C endpoint: mean survival time, dose: 12.0 mg/kg/injection, schedule: Q01DX009 (ip), vehicle: saline) was 0 of 6 and the survivor count (T/C endpoint: mean survival time, dose: 12.5 mg/kg/injection, schedule: Q01DX009 (ip), vehicle: saline) was 0 of 6. The survivor count (T/C endpoint: mean survival time, dose: 12.5 mg/kg/injection, schedule: Q01DX009 (ip), vehicle: suspension in saline) was 0 of 6, the survivor count (T/C endpoint: mean survival time, dose: 25.0 mg/kg/injection, schedule: Q01DX009 (ip), vehicle: saline) was 0 of 6 and the survivor count (T/C endpoint: mean survival time, dose: 25.0 mg/kg/injection, schedule: Q01DX009 (ip), vehicle: suspension in saline) was 0 of 6. The survivor count (T/C endpoint: mean survival time, dose: 50.0 mg/kg/injection, schedule: Q01DX009 (ip), vehicle: saline) was 0 of 6, the survivor count (T/C endpoint: mean survival time, dose: 50.0 mg/kg/injection, schedule: Q01DX009 (ip), vehicle: suspension in saline) was 0 of 6 and the survivor count [4] was 0 of 6. For the same compound, the survivor count (T/C endpoint: mean survival time, dose: 100.0 mg/kg/injection, schedule: Q01DX009 (ip), vehicle: suspension in saline) was 0 of 6, the survivor count (T/C endpoint: mean survival time, dose: 200.0 mg/kg/injection, schedule: Q01DX009 (ip), vehicle: saline) was 0 of 6 and the survivor count (T/C endpoint: mean survival time, dose: 200.0 mg/kg/injection, schedule: Q01DX009 (ip), vehicle: suspension in saline) was 0 of 6. For the same compound, the survivor count (T/C endpoint: mean survival time, dose: 400.0 mg/kg/injection, schedule: Q01DX009 (ip), vehicle: saline) was 0 of 6, the survivor count (T/C endpoint: mean survival time, dose: 400.0 mg/kg/injection, schedule: Q01DX009 (ip), vehicle: suspension in saline) was 0 of 6 and the T/C (T/C endpoint: median survival time, dose: 0.5 mg/kg/injection, schedule: Q01DX005 (ip), vehicle: saline) was 133 % of control.
With `CN(C)CCCNc1cccc2c1C(=O)c1cccc(NCCCN(C)C)c1C2=O` the survivor count (T/C endpoint: mean survival time, dose: 128.0 mg/kg/injection, schedule: Q01DX009 (ip), vehicle: acid diluted with saline) was 1 of 6.
In the case of `Cc1ccc(CNC2=C(Cl)C(=O)c3ccccc3C2=O)cc1`, the survivor count (T/C endpoint: mean survival time, dose: 50.0 mg/kg/injection, schedule: Q04DX003 (ip), vehicle: saline with Tween-80) is reported as 0 of 6 and the survivor count (T/C endpoint: mean survival time, dose: 100.0 mg/kg/injection, schedule: Q04DX003 (ip), vehicle: saline with Tween-80) is reported as 0 of 6.
`CS(=O)(=O)C(Br)S(C)(=O)=O` was tested, and the survivor count (T/C endpoint: mean survival time, dose: 100.0 mg/kg/injection, schedule: Q04DX003 (ip), vehicle: saline) was 1 of 6, the survivor count (T/C endpoint: mean survival time, dose: 200.0 mg/kg/injection, schedule: Q04DX003 (ip), vehicle: saline) was 0 of 6 and the survivor count [1] was 0 of 6.
`CCOC(=O)/C(C#N)=C/P(=O)(OCC)OCC` was tested, and the survivor count (T/C endpoint: mean survival time, dose: 25.0 mg/kg/injection, schedule: Q04DX003 (ip), vehicle: Klucel (hydroxypropylcellulose) (HPC)) was 3 of 6, the survivor count (T/C endpoint: mean survival time, dose: 50.0 mg/kg/injection, schedule: Q04DX003 (ip), vehicle: Klucel (hydroxypropylcellulose) (HPC)) was 4 of 6 and the survivor count (T/C endpoint: mean survival time, dose: 100.0 mg/kg/injection, schedule: Q04DX003 (ip), vehicle: Klucel (hydroxypropylcellulose) (HPC)) was 2 of 6.
With `NC(N)=N/N=C/c1c(O)ccc2ccccc12` the survivor count (T/C endpoint: mean survival time, dose: 250.0 mg/kg/injection, schedule: Q01DX010 (oral), vehicle: saline) was 2 of 6.
`CCCCc1ccc(-n2c(C)c(COC(=O)NC)c(COC(=O)NC)c2C)cc1` was tested, and the T/C (T/C endpoint: mean survival time, dose: 25.0 mg/kg/injection, schedule: Q01DX009 (ip), vehicle: Klucel (hydroxypropylcellulose) (HPC)) was 127 % of control.
For `CC(c1ccccc1)n1cncc1C(=O)N1CCN(C)CC1` (stereo unspecified), the survivor count [2] was 4 of 6 and the survivor count (T/C endpoint: mean survival time, dose: 400.0 mg/kg/injection, schedule: Q01DX009 (ip), vehicle: saline with Tween-80) was 3 of 6.
For `CCC[N+](CCC)(CCC)CCC.N#CC(C#N)=C([SH2+])[SH2+].N#CC(C#N)=C([SH2+])[SH2+].N#CC(C#N)=C([SH2+])[SH2+].[Fe+3]`, the survivor count (T/C endpoint: mean survival time, dose: 100.0 mg/kg/injection, schedule: Q04DX003 (ip), vehicle: acetone) was 3 of 6.
